# PubChem BioAssay AID504327 (National Center for Advancing Translational Sciences (NCATS), 2011)
# Protein sequences, listed by entry. Tags and fused reporters are not part of them.
# UniProt Q92830, whole entry, looked up: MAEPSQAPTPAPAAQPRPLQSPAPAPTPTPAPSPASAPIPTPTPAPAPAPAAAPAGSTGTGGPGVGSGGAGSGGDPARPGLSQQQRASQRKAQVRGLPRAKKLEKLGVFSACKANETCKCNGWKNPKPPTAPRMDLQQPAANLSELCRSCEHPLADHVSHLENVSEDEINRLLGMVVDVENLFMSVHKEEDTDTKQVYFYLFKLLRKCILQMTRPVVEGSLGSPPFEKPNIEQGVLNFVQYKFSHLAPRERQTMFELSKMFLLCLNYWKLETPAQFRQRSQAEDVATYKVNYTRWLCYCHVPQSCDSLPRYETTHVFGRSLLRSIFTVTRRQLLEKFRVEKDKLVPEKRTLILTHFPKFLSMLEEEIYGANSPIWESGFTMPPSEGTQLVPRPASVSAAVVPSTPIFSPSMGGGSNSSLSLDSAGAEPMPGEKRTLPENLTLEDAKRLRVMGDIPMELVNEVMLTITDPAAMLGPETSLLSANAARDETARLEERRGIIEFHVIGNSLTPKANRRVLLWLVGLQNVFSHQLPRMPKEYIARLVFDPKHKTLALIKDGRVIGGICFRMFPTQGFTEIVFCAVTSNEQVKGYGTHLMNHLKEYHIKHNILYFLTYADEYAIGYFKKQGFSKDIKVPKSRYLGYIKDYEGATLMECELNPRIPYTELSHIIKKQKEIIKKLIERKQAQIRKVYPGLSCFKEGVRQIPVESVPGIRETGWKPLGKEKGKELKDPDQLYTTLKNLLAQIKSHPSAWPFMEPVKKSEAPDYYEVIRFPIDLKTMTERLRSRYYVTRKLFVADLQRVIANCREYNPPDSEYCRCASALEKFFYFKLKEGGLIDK
# The whole screen tested about 390,000 compounds, of which about 820 (0.21%) were called active. The shares of active, inactive and inconclusive entries below differ from those in the screen. Calls follow the shape of the dose curve; as a rule, active = well fitted inhibition curve with a large enough effect; inconclusive = small, poorly fitted or top-dose-only effect, or another doubt; inactive = no such curve, though single readings can be large or run the other way. Where the call is inconclusive, the potency comes from a doubtful curve fit.
# Biological target: Histone acetyltransferase KAT2A (Homo sapiens) (UniProt Q92830)
# Test: qHTS Assay for Inhibitors of GCN5L2
# Conditions: GCN5L2 HAT assay, ThioGlo1 CoA-SH fluorescence; activity change, negative = inhibition: at 58.9 µM (top of the series) unless noted
# Summary of the method: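 Fluorescence readout, Ex340nm/Em540nm: ThioGlo1 (50uM final) reacts with free CoA thiol released as 20nM GCN5L2 acetylates H3(1-25) peptide (75uM) using acetyl-CoA (70uM). Compound and enzyme sat 15 min beforehand; 20 min room-temperature reaction.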
# % is scaled to controls: 0 for no effect and ±100 for the full control effect; potency is read from the fitted curve at half-maximal effect.
Structure (SMILES),Potency,"activity change, negative = inhibition"
NP(=O)(OCCCc1ccccc1)Oc1ccccc1Cl (centres undefined),"inconclusive: 8.91 µM [inhibitor, single point]",–
O=C1NC(=S)N(c2ccc(F)cc2)C(=O)/C1=C\c1ccoc1,"inconclusive: 35.5 µM [inhibitor, single point]",–
CCn1c(O)c(C=Nc2ccc(N3CCOCC3)c(Br)c2)c(=O)n(CC)c1=S,"inconclusive: 1.26 µM [inhibitor, full curve, poor fit]",–
O=C1NC(=O)N(c2ccc3c(c2)OCO3)C(=O)/C1=C\c1ccsc1,inactive,–
Cc1cc(OCC(=O)N2CCC(C(=O)O)CC2)c2c3c(c(=O)oc2c1)CCC3,"inconclusive: 39.8 µM [inhibitor, single point]",–
Fc1ccc(C(OCCN2CCN(C/C=C\c3ccccc3)CC2)c2ccc(F)cc2)cc1,–,inconclusive: -31.4% [inhibitor]
O=C(Cc1ccccc1)N1CCN(CCCc2ccccc2)CC1,inactive,–
ClC1C(Cl)C(Cl)C(Cl)C(Cl)C1Cl (centres undefined),"inconclusive: 39.8 µM [inhibitor, single point]",–
CC(=O)Nc1ccccc1C(=O)OCC(=O)c1cccc2ccccc12,"inconclusive: 1 µM [inhibitor, full curve, poor fit]",–
Cn1cccc1/C=C1\C(=O)NC(=O)N(Cc2ccccc2)C1=O,inactive,–
CCCCn1c(O)c(C(CC)=NCc2ccc(F)cc2)c(=O)[nH]c1=O,"inconclusive: 0.708 µM [inhibitor, partial curve, poor fit]",–
CCOP(=S)(OCC)Oc1cc(C)oc(=O)c1,"inconclusive: 39.8 µM [inhibitor, single point]",–
N[C@@H](Cc1cc(I)c(O)c(I)c1)C(=O)O,"inconclusive: 35.5 µM [inhibitor, single point]",–
CCOP(=S)(OCC)SCn1c(=O)oc2cc(Cl)ccc21,"inconclusive: 39.8 µM [inhibitor, partial curve]",–
NC(=O)CI,active: 10 µM,–
CCOC(=O)c1cc(C)n(CCc2cnc[nH]2)c1C,inactive,–
CN1C(=O)C(=Cc2ccc(N3CCCCC3)o2)C(=O)N(C)C1=S,inactive,–
CC1COC2=C1C(=O)C(=O)c1c2ccc2c1CCCC2(C)C (centres undefined),active: 28.2 µM,–
COc1ccc(CN2CCNCC2)cc1,inactive,–
Cn1c(=O)oc2cc(S(=O)(=O)CCC(=O)N3CCN(c4ccccc4)CC3)ccc21,inactive,–
Fc1cccc(CNCCc2c[nH]c3ccccc23)c1,"inconclusive: 39.8 µM [inhibitor, partial curve, poor fit]",–
COc1ccc2[nH]c3c(c2c1)CCNC3,"inconclusive: 39.8 µM [inhibitor, single point]",–
O=c1[nH]sc2cc(F)ccc12,active: 4.47 µM,–
Cc1cc(NC(=O)C(Cl)(Cl)Cl)no1,"inconclusive: 3.55 µM [inhibitor, partial curve]",–

Structure (SMILES),Potency,"activity change, negative = inhibition"
COc1ccc(N2C(=O)/C(=C/C=C/c3ccccc3[N+](=O)[O-])C(=O)NC2=S)cc1,"inconclusive: 35.5 µM [inhibitor, single point]",–
Cc1cc(S(=O)(=O)NCc2ccccc2)ccc1OCC(=O)N1CCN(C)CC1,"inconclusive: 0.631 µM [inhibitor, single point]",–
O=C(Nc1ccccc1)N1CCCC2(CCN(C(=O)Oc3ccccc3)CC2)C1,inactive,–
O=[N+]([O-])c1cccc2c([N+](=O)[O-])cccc12,"inconclusive: 14.1 µM [inhibitor, partial curve]",–
O=C1NC(=O)N(c2ccc3c(c2)OCO3)C(=O)/C1=C\c1ccc(N2CCCCC2)o1,inactive,–
CCCN1CCc2cc(O)cc3c2C1Cc1ccc(O)c(O)c1-3 (centres undefined),inactive,–
COc1ccccc1C(=O)Nc1ccc2c(c1)CC1(C(=O)N(C)C(=O)N(C)C1=O)C1CCCN21 (centres undefined),inactive,–
S=C=NCc1ccccc1,inactive,–
CCC(=O)Nc1ccccc1,inactive,–
O=[N+]([O-])C(Br)(CO)CO,"inconclusive: 28.2 µM [inhibitor, single point]",–
CN1CCN(c2ncc3ncc(=O)n(C)c3n2)CC1,"inconclusive: 31.6 µM [inhibitor, single point]",–
CC(C)(C)c1ccc(S(=O)(=O)N2CC3CC(C2)c2cccc(=O)n2C3)cc1 (centres undefined),"inconclusive: 3.55 µM [inhibitor, single point]",–
Cc1cc(/C=C2\C(=O)NC(=O)N(Cc3ccccc3)C2=O)c(C)n1-c1ccc(Cl)c(C(=O)O)c1,"inconclusive: 25.1 µM [inhibitor, single point]",–
COc1cc(/C=C/c2nc3ccccc3c(=O)n2-c2ccc(Br)c(C)c2)ccc1O,inactive,–
Cc1cc(OCC(=O)OC(C)C)c2c3c(c(=O)oc2c1)CCCC3,"inconclusive: 6.31 µM [inhibitor, single point]",–
CN1C[C@H](C(=O)N[C@]2(C)O[C@@]3(O)[C@@H]4CCCN4C(=O)[C@H](Cc4ccccc4)N3C2=O)C=C2c3cccc4[nH]cc(c34)C[C@H]21,"inconclusive: 28.2 µM [inhibitor, single point]",–
CNc1cc(Cl)c2nonc2c1[N+](=O)[O-],"inconclusive: 28.2 µM [inhibitor, single point]",–
CC(C)CN(CC(C)C)c1ccc(C=C2C(=O)NC(=S)NC2=O)cc1[N+](=O)[O-],"inconclusive: 17.8 µM [inhibitor, single point]",–
CN1C(=O)C(=Cc2ccc(-c3cccc(Cl)c3)o2)C(=O)N(C)C1=O,inactive,–
COc1cc2c(cc1O)C[C@H]1NCCc3cc4c(c-2c31)OCO4,inactive,–
Cn1c(O)c(C=NC2CCCCCC2)c(=O)[nH]c1=S,inactive,–
COC(=O)C1=C(c2ccc(OC(F)(F)F)cc2)C[C@@H]2CC[C@H]1N2C(=O)NC1CCCCC1,"inconclusive: 25.1 µM [inhibitor, single point]",–
C[C@@H](C(=O)O)c1ccc(C(=O)c2cccs2)cc1,inactive,–
CCC(=NCCCN(C)C)c1c(O)n(-c2ccc(OC)cc2)c(=O)[nH]c1=O,"inconclusive: 8.91 µM [inhibitor, single point]",–

# Individual results from the list:
# For Potency, `CCC(=NCCCN(C)C)c1c(O)n(-c2ccc(OC)cc2)c(=O)[nH]c1=O` is listed with inconclusive: 8.91 µM [inhibitor, single point]
# For Potency, `COc1ccc(N2C(=O)/C(=C/C=C/c3ccccc3[N+](=O)[O-])C(=O)NC2=S)cc1` is listed with inconclusive: 35.5 µM [inhibitor, single point]
